Test results as given in patent CN116462616A, “炔酰胺类化合物及其应用” (Jinan University, priority 2022, dated 2023).

System: HepG2 cells [HepG2细胞]
Assay: Proteomics experiment for target confirmation of YN-1/4 in HepG2 cells
Assay type: cell-based, human
Conditions: 50 μM, 37 °C, 5 h

C#Cc1ccc(S(=O)(=O)N(C)C#C)cc1 [YN-1]
number of target proteins identified: 999
number of target proteins overlapping between YN-1 and YN-4: 211
